Assay results from PMC8881610.
These are yes or no findings as the source states them, for the method shown. Some entries that bind do so weakly or less than the wild type.

Chains of the proteins cited; added tags and fusions are not shown. Residues count along the entry.
UniProt P43220, residues 24-463: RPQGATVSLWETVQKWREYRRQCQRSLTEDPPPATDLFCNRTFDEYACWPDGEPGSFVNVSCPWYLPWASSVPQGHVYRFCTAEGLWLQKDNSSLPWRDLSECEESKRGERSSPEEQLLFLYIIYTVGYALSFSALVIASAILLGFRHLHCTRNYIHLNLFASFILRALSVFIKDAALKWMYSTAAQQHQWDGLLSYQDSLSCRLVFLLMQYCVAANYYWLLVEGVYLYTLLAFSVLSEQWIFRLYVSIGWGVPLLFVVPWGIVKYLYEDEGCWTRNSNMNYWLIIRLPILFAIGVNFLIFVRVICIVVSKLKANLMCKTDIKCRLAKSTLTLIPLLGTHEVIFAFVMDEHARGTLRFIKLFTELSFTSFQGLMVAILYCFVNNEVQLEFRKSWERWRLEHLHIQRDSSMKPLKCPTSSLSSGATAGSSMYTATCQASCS
UniProt P47871, residues 27-432: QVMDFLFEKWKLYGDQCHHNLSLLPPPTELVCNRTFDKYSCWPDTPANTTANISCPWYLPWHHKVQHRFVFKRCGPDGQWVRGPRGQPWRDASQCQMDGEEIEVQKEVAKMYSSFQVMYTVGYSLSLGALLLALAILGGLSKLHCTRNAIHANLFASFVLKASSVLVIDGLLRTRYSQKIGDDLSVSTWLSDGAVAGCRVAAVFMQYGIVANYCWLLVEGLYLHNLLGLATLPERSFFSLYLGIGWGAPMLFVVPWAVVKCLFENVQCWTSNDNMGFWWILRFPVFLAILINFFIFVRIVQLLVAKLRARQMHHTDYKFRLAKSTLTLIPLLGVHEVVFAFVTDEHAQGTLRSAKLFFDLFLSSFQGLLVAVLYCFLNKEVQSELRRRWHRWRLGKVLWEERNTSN

Legend:
[1] = biological target: HA-GLP-1R(24-463)-LgBiT-2MBP (human) (UniProt P43220); test: radioligand binding; only the binder purified
[2] = biological target: HA-GCGR(27-432)-HPC4 (human) (UniProt P47871); test: radioligand binding; only the binder purified

## HAQGTFTSDKSKYLDERAAQDFVQWLLDGGPSSGAPPPS [peptide 20]
[1]
  binding: binds
[2]
  binding: binds
